Data from article PMC7809202, “Identification of fidelity-governing factors in human recombinases DMC1 and RAD51 from cryo-EM structures” (Nature Communications, 2021).

Protein sequences, listed by entry. Tags and fused reporters are not part of them.
UniProt Q06609, whole entry: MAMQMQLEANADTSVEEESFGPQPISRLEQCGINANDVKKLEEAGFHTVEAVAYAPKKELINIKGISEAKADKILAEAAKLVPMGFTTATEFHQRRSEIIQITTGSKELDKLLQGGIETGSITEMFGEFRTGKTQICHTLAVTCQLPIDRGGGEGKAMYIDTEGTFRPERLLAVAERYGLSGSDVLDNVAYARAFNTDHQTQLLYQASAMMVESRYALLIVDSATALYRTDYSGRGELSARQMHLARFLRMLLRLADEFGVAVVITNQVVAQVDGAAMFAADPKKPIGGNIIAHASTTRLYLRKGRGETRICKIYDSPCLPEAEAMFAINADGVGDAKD
UniProt Q06609, whole entry M243Q: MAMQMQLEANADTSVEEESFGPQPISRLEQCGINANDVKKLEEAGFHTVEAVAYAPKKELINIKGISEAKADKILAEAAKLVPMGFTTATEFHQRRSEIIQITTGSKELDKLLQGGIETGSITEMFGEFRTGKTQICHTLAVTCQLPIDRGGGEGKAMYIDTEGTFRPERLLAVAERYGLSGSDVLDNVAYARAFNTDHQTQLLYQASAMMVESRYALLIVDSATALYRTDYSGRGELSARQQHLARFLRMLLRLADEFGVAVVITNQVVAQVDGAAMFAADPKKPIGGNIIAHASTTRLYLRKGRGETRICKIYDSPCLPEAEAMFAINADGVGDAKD
UniProt Q06609, whole entry M243Q/V273P/D274G: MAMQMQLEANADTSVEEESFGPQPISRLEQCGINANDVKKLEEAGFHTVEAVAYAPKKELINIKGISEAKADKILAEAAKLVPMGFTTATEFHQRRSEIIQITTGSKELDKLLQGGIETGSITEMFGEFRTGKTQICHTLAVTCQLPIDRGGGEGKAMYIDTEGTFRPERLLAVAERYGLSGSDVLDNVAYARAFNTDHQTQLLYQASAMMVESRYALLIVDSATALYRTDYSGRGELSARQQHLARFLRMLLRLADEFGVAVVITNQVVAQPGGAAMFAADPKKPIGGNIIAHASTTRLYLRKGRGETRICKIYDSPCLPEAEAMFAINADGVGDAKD
UniProt Q06609, whole entry V273P/D274G: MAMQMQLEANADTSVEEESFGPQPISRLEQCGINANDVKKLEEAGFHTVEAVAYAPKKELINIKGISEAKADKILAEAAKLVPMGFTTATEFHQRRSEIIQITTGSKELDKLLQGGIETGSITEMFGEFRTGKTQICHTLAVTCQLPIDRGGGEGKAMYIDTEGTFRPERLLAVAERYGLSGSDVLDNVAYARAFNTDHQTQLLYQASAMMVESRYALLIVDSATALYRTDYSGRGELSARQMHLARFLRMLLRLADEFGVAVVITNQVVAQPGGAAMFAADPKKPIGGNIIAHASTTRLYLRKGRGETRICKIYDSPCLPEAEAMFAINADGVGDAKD

Columns and labels:
DMC1 WT (Homo sapiens) = target: T1, DMC1 WT (Homo sapiens) (UniProt Q14565); experiment: EMSA; details: 2 mM ATP, 10 mM Mg2+, EMSA: 35 mM Tris-HCl pH 7.5, 1 mM DTT, 10 mM MgCl2, 100 ng/ul BSA, 50 mM KCl, 37 °C 10 min, DNA 3 uM nucleotides or base pairs, recombinant protein
T1 sequence (looked up, limits assumed): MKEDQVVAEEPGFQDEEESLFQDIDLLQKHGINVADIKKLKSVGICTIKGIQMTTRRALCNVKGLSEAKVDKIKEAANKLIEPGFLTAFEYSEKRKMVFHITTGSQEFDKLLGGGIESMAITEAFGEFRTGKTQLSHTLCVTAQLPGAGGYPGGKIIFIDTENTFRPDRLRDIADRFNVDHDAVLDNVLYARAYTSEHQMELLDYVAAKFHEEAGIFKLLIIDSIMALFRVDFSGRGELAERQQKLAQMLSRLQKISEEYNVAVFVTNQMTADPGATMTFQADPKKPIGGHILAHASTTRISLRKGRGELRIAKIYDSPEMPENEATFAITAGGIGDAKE

[1] = target: T2, DMC1-Q244M (Qm) (Homo sapiens) (UniProt Q14565); experiment: EMSA; details: 2 mM ATP, 10 mM Mg2+, comparable to WT, EMSA: 35 mM Tris-HCl pH 7.5, 1 mM DTT, 10 mM MgCl2, 100 ng/ul BSA, 50 mM KCl, 37 °C 10 min, DNA 3 uM nucleotides or base pairs, recombinant protein
T2 sequence (looked up, limits assumed): T1 sequence (looked up, limits assumed) with Q244M

RAD51 WT (Homo sapiens) = RAD51 WT (Homo sapiens) (UniProt Q06609); experiment: EMSA; details: 2 mM ATP, 10 mM Mg2+, EMSA: 35 mM Tris-HCl pH 7.5, 1 mM DTT, 10 mM MgCl2, 100 ng/ul BSA, 50 mM KCl, 37 °C 10 min, DNA 3 uM nucleotides or base pairs, recombinant protein
[2] = target: RAD51-M243Q (Mq) (Homo sapiens) (UniProt Q06609); experiment: EMSA; details: 2 mM ATP, 10 mM Mg2+, comparable to WT, EMSA: 35 mM Tris-HCl pH 7.5, 1 mM DTT, 10 mM MgCl2, 100 ng/ul BSA, 50 mM KCl, 37 °C 10 min, DNA 3 uM nucleotides or base pairs, recombinant protein
[3] = target: RAD51-MqVpDg M243Q,V273P,D274G (Homo sapiens) (UniProt Q06609); experiment: EMSA; details: 2 mM ATP, 10 mM Mg2+, comparable to WT, EMSA: 35 mM Tris-HCl pH 7.5, 1 mM DTT, 10 mM MgCl2, 100 ng/ul BSA, 50 mM KCl, 37 °C 10 min, DNA 3 uM nucleotides or base pairs, recombinant protein
[4] = target: RAD51-VpDg V273P,D274G (Homo sapiens) (UniProt Q06609); experiment: EMSA; details: 2 mM ATP, 10 mM Mg2+, comparable to WT, EMSA: 35 mM Tris-HCl pH 7.5, 1 mM DTT, 10 mM MgCl2, 100 ng/ul BSA, 50 mM KCl, 37 °C 10 min, DNA 3 uM nucleotides or base pairs, recombinant protein
[5] = target: RAD51-VpDg V273P,D274G (Homo sapiens) (UniProt Q06609); experiment: cryo-EM structure; details: recombinant protein
[6] = protein details: His6, label: 5'-32P on Oligo 1
[7] = protein details: His6, label: 5'-32P (EMSA), single-stranded DNA
[8] = label: 5'-32P (EMSA), single-stranded DNA

Measured: binding result

TTATGTTCATTTTTTATATCCTTTACTTTATTTTCTCTGTTTATTCATTTACTTATTTTGTATTATCCTTATCTTATTTA (double strand) [Oligo 1/Oligo 2 80 bp dsDNA]
binds: DMC1 WT (Homo sapiens); [6] | [1]; [6] | RAD51 WT (Homo sapiens); label: 5'-32P on Oligo 1 | [2]; label: 5'-32P on Oligo 1 | [3]; label: 5'-32P on Oligo 1 | [4]; label: 5'-32P on Oligo 1

TTATGTTCATTTTTTATATCCTTTACTTTATTTTCTCTGTTTATTCATTTACTTATTTTGTATTATCCTTATCTTATTTA [Oligo 1 80-mer ssDNA]
binds: DMC1 WT (Homo sapiens); [7] | [1]; [7] | RAD51 WT (Homo sapiens); [8] | [2]; [8] | [3]; [8] | [4]; [8]

ACGGGCAACAGCTGA (double strand) [Oligo 3/Oligo 4 15 bp homologous dsDNA]
binds: [5]

Positions count from the first letter of the chain named. Construct, isoform or probe ends are uncertain for at least one entry. At least one verdict was read from the data and is not stated in words by the source. For some of these results: Where a protein sequence is shown, tags need not be part of it.
